Experimental data from the supplement of paper PMC12067093, “Discovery and optimisation of a covalent ligand for TRIM25 and its application to targeted protein ubiquitination” (Chemical Science, 2025).
The list shows a part of the results.

Chains of the proteins cited; added tags and fusions are not shown. Lines headed by an entry give the natural chain unless they say otherwise; changes in a name come on top.
UniProt Q08378: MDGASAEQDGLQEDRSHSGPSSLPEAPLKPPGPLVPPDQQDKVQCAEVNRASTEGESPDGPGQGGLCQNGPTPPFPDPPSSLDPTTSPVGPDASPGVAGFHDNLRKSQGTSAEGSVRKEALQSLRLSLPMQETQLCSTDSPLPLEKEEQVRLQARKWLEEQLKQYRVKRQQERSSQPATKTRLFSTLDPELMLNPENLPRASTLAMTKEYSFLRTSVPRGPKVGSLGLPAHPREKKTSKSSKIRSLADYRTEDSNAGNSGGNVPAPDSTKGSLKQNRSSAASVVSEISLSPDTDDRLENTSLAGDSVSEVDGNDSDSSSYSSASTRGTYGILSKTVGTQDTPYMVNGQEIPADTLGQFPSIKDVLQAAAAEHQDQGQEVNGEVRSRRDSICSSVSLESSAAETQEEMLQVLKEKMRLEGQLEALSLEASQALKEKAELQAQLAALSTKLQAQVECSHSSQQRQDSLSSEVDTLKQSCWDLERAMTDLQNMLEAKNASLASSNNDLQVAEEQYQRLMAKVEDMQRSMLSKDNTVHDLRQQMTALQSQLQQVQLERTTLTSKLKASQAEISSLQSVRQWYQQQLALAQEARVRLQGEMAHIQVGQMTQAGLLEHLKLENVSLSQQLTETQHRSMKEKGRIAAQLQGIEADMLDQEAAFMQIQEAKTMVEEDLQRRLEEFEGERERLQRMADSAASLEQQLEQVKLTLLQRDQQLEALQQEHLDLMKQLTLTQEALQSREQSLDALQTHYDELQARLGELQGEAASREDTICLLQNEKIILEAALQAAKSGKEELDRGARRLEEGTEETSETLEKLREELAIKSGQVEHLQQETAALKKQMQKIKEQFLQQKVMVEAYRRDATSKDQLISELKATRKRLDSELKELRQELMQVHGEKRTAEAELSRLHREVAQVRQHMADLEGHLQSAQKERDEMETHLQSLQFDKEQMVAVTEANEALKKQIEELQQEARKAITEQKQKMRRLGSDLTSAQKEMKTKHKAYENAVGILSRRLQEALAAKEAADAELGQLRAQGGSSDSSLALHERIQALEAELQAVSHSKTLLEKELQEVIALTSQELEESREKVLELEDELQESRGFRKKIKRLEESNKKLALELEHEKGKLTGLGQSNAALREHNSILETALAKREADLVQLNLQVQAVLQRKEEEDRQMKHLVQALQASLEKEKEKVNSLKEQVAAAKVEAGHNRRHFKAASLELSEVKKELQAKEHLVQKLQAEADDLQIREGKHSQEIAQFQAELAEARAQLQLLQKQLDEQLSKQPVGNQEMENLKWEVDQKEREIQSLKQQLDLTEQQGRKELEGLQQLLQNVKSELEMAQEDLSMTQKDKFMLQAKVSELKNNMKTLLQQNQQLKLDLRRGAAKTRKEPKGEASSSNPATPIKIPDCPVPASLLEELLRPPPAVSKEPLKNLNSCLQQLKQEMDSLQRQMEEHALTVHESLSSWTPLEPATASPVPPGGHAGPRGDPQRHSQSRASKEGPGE
UniProt Q8N954: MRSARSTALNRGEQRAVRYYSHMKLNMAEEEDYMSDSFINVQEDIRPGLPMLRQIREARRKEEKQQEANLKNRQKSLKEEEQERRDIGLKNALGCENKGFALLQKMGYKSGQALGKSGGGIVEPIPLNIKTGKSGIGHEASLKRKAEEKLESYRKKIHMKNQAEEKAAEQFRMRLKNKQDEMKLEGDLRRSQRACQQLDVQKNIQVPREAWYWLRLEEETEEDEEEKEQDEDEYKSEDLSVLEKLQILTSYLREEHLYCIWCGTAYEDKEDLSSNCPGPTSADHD
UniProt Q92896: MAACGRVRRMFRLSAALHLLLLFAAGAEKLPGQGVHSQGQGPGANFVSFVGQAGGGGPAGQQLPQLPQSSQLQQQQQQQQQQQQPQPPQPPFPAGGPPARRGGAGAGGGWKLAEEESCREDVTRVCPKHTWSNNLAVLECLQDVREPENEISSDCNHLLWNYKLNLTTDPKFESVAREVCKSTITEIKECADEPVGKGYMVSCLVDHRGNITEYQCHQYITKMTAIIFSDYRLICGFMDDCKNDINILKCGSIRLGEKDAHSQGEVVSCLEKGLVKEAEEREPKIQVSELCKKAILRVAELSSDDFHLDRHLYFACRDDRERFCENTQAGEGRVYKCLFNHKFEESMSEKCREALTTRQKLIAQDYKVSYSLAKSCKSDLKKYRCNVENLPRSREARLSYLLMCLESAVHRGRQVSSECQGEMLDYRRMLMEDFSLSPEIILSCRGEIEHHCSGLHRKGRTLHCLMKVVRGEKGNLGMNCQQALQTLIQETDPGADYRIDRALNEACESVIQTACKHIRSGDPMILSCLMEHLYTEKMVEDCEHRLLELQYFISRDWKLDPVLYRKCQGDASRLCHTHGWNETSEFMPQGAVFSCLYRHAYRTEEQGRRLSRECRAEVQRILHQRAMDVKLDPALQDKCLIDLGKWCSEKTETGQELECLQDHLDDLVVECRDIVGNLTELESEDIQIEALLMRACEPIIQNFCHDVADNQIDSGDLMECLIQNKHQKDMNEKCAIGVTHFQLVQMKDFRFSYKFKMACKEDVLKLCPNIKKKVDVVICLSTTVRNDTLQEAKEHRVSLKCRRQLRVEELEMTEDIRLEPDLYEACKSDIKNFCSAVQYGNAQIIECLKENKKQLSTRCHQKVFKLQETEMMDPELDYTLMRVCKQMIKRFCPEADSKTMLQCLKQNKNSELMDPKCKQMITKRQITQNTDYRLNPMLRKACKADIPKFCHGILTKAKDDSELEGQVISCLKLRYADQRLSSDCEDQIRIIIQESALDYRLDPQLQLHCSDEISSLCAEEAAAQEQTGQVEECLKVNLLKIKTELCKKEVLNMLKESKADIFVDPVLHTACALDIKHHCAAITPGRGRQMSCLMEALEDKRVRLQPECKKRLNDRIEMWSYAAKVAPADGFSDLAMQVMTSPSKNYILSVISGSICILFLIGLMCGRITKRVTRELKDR
UniProt P63096, whole entry, looked up: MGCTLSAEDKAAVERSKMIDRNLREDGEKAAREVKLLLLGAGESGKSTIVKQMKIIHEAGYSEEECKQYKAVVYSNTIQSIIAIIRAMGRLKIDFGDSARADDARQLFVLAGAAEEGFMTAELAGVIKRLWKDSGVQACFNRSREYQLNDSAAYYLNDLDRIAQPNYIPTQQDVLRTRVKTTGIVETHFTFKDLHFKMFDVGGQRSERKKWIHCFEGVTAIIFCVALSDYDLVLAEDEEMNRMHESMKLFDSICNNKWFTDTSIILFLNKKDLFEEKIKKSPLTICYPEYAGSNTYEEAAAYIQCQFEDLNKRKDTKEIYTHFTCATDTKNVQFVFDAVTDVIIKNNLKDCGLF
UniProt P35754: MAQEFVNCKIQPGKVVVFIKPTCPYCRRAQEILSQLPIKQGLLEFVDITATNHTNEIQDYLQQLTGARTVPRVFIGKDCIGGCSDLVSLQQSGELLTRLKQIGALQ
UniProt P04899, whole entry, looked up: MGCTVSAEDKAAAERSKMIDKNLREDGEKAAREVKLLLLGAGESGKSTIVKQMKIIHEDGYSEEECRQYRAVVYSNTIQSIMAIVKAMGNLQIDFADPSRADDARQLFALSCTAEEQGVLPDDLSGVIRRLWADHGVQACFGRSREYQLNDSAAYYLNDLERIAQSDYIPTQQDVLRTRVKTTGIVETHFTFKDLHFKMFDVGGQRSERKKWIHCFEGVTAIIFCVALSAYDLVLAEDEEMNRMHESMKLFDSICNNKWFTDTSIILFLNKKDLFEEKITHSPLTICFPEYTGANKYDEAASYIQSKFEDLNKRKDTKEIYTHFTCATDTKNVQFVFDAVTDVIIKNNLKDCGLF
UniProt Q9NQX3: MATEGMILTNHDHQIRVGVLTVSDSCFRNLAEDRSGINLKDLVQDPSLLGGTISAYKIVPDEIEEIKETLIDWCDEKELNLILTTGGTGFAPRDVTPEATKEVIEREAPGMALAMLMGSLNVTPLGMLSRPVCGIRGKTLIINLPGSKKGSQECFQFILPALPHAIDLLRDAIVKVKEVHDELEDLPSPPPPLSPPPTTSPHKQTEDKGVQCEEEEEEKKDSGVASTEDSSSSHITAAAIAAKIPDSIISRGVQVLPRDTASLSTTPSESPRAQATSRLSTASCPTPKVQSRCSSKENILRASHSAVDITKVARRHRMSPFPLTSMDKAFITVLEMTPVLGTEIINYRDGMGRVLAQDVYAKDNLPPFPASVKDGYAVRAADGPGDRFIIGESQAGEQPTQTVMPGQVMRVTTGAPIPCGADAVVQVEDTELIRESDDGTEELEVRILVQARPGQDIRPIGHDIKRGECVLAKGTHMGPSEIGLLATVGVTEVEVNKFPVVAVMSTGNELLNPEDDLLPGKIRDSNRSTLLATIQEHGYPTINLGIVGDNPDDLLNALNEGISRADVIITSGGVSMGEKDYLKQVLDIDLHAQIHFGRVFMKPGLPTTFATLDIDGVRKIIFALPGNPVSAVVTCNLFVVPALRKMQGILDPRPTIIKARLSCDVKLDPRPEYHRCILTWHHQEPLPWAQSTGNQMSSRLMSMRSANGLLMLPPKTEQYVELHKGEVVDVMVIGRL

Compound: CC1Cc2ccccc2N1C(=O)C1CCCN(C1)C(=O)CCl (mixture of isomers) [TRIM25 ligand 11 (diastereomer mixture)]
Experiment: probe-labelled cysteine peptide fold change vs DMSO (competition) (log2 fold change); higher = less target engagement (more negative = stronger competition)
Details: THP-1, incubation time: 4 h
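Note: competitive chemoproteomic profiling in live THP-1 cells with an iodoacetamide desthiobiotin (IA-DTB) probe, comparing probe-labelled peptide intensities in compound-treated cells against DMSO-treated controls.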

GOPC_Q9HD26_408_LYLDELEGGGNPGASCK (UniProt Q9HD26)
probe-labelled cysteine peptide fold change (10 µM): -0.0816 | probe-labelled cysteine peptide fold change (50 µM): -0.231

GNPTG_Q9UJJ9_157_LAHVSEPSTCVYALTFETPLVCHPHALLVYPTLPEALQR (UniProt Q9UJJ9)
probe-labelled cysteine peptide fold change (10 µM): 0.29 | probe-labelled cysteine peptide fold change (50 µM): -0.37

GOLGA3_Q08378_391_DSICSSVSLESSAAETQEEMLQVLK (UniProt Q08378)
probe-labelled cysteine peptide fold change (10 µM): -0.0584 | probe-labelled cysteine peptide fold change (50 µM): -0.0915

GPATCH11_Q8N954_195_ACQQLDVQK (UniProt Q8N954)
probe-labelled cysteine peptide fold change (10 µM): -0.107 | probe-labelled cysteine peptide fold change (50 µM): -0.0743

GLG1_Q92896_190_ECADEPVGK (UniProt Q92896)
probe-labelled cysteine peptide fold change (10 µM): 0.0707 | probe-labelled cysteine peptide fold change (50 µM): 0.307

GNAI1_P63096_66_IIHEAGYSEEECK (UniProt P63096)
probe-labelled cysteine peptide fold change (10 µM): 0.219 | probe-labelled cysteine peptide fold change (50 µM): -0.00386

GLRX_P35754_8_AQEFVNCK (UniProt P35754)
probe-labelled cysteine peptide fold change (10 µM): -0.0899 | probe-labelled cysteine peptide fold change (50 µM): -0.236

GNAI2_P04899_287_ITHSPLTICFPEYTGANKYDEAASYIQSK (UniProt P04899)
probe-labelled cysteine peptide fold change (10 µM): -0.134 | probe-labelled cysteine peptide fold change (50 µM): -0.103

GPHN_Q9NQX3_154_KGSQECFQFILPALPHAIDLLR (UniProt Q9NQX3)
probe-labelled cysteine peptide fold change (10 µM): -0.234 | probe-labelled cysteine peptide fold change (50 µM): -0.269
